Entries after “also recorded” stand apart in the source; their conditions may differ. At least one structure is not confirmed: it was looked up by name or label, or the drawing left a doubt.
Key:
Format in all cases: in vivo
[1] = test system: Acyrthosiphon pisum aphids; assay: Aphid survival monitoring
Excerpt: For each treatment, 33 aphids were placed onto each leaf. Artificial diet feeding systems were changed every 2-3 days throughout the experiment. Aphids were monitored daily for survival and dead aphids were removed from the deep petri dish housing the artificial feeding system when they were discovered.
(§1) Each treatment group received approximately the same number of individuals from each of the collection plant. For each treatment, 20 aphids were placed onto each leaf. Aphids were monitored daily for survival and dead aphids were removed when they were discovered. In addition, the developmental stage (1st, 2nd, 3rd, 4th, 5th instar, and 5R, representing a reproducing 5th instar) was determined daily throughout the experiment. Pictures of aphids were taken throughout the experiment to evaluate size differences between treatment groups.
(Vroma vicia faba from Johnny's Selected Seeds) in a climate-controlled incubator (16 h light/8 h dark photoperiod; 60±5% RH; 25±2° C.). Prior to being used for aphid rearing, fava bean plants were grown in potting soil at 24° C. with 16 h of light and 8 h of darkness. To limit maternal effects or health differences between plants, 5-10 adults from different plants were distributed among 10 two-week-old plants, and allowed to multiply to high density for 5-7 days. For experiments, first and second instar aphids were collected from healthy plants and divided into 2 different treatment groups: 1) negative control (leaf injected with water plus blue food coloring) and 2) leaf injected with 50 μg/ml rifampicin in water plus blue food coloring. Each treatment group received approximately the same number of individuals from each of the collection plants. For treatment, rifampicin stock solution (25 mg/ml in 100% methanol) was diluted to 50 μg/ml in water plus blue food coloring. The solution was then placed into a 1.5 ml Eppendorf tube with a fava bean stem perfused with the solutions and the opening of the tube was closed using parafilm. This feeding system was then placed into a deep petri dish (Fisher Scientific, Cat# FB0875711) and aphids were applied to the leaves of the plant. For each treatment, 74-81 aphids were placed onto each leaf. The feeding systems were changed every 2-3 days throughout the experiment. Aphids were monitored daily for survival and dead aphids were removed from the deep petri dish when they were discovered. In addition, the developmental stage (1st, 2nd, 3rd, 4th, 5th and 5R (5th that has reproduced) instar) was determined daily throughout the experiment.
For each treatment, 49-50 aphids were placed onto each leaf. […] Aphids were monitored daily for survival and dead aphids were removed from the deep petri dish when they were discovered.
For each treatment, 76-80 aphids were placed onto each leaf. […] Aphids were monitored daily for survival and dead aphids were removed from the deep petri dish when they were discovered.
For each treatment, 50-51 aphids were placed onto each leaf. […] Aphids were monitored daily for survival and dead aphids were removed from the deep petri dish when they were discovered.
For each treatment, 56-59 aphids were placed onto each leaf. […] Aphids were monitored daily for survival and dead aphids were removed from the deep petri dish when they were discovered.
For each treatment, 57-59 aphids were placed onto each leaf. […] Aphids were monitored daily for survival and dead aphids were removed from the deep petri dish when they were discovered. […]

[2] = test system: Acyrthosiphon pisum aphids; assay: Aphid fecundity (offspring production); conditions: LSR-1; 100 μg/ml rifampicin with or without essential amino acids, through plants
Procedure: (§2) In addition, the developmental stage (1st, 2nd, 3rd, 4th, 5th instar) was determined daily throughout the experiment. Once an aphid reached the 4th instar stage, they were given their own artificial feeding system in a deep petri dish so that fecundity could be monitored once they reached adulthood.
For adult aphids, new nymphs were counted daily and then discarded. At the end of the experiments, fecundity was determined as the mean number of offspring produced daily once the aphid reached adulthood. Pictures of aphids were taken throughout the experiment to evaluate size differences between treatment groups.
as §2, with “5th, and 5R (5th that has reproduced)” for “5th”
For adult aphids, new nymphs were counted daily and then discarded. At the end of the experiments, fecundity was measured in two ways: 1) the mean day at which the first offspring for the treatment group was determined and 2) the mean number of offspring produced daily once the aphid reached adulthood. […]
In addition, the developmental stage (1st, 2nd, 3rd, 4th, 5th instar) was determined daily throughout the experiment. […]

[3] = test system: Acyrthosiphon pisum aphids; assay: Aphid developmental stage monitoring
Procedure: as §2, §1
(Vroma vicia faba from Johnny's Selected Seeds) in a climate-controlled incubator (16 h light/8 h dark photoperiod; 60±5% RH; 25±2° C.). […] Aphids were monitored daily for survival and dead aphids were removed from the deep petri dish when they were discovered. In addition, the developmental stage (1st, 2nd, 3rd, 4th, 5th and 5R (5th that has reproduced) instar) was determined daily throughout the experiment.
In addition, the developmental stage (1st, 2nd, 3rd, 4th, 5th, and 5R (5th that has reproduced) instar) was determined daily throughout the experiment.
In addition, the developmental stage (1st, 2nd, 3rd, 4th, 5th, and 5R (5th instar aphids that are reproducing) instar) was determined daily throughout the experiment.
In addition, the developmental stage (1st, 2nd, 3rd, 4th, and 5th instar) was determined daily throughout the experiment.
as §2, with “5th, and 5R (5th that has reproduced)” for “5th”, “adulthood. […]” for “adulthood.”

## CO[C@H]1/C=C/O[C@@]2(C)Oc3c(C)c(O)c4c(O)c(c(/C=N/N5CCN(C)CC5)c(O)c4c3C2=O)NC(=O)/C(C)=C\C=C\[C@H](C)[C@H](O)[C@@H](C)[C@@H](O)[C@@H](C)[C@H](OC(C)=O)[C@@H]1C [rifampicin]
[1]; LSR-1, 100 μg/ml rifampicin and essential amino acids, through plants
  Aphid survival: survived longer than those treated with rifampicin alone
[1]; combination delivery, 100 μg/ml rifampicin
  Aphid survival rate: slightly lower survival rates than aphids treated with control solutions; also recorded: no statistically significant differences between groups
[1]; leaf coating, 50 μg/ml rifampicin
  Aphid survival rate: lower survival rates than aphids placed on coated leaves with the control; also recorded: resulted in aphid death
[1]; leaf perfusion and cutting, 50 μg/ml rifampicin
  Aphid survival rate: lower survival rates than aphids placed on leaves injected with the control solution
[1]; leaf perfusion and delivery through plant, 100 μg/ml rifampicin
  Aphid survival rate: lower survival rates than aphids feeding on leaves perfused and treated with the control solution; also recorded: no statistically significant differences between groups
[2]
  Aphid reproduction (offspring): unable to reach adulthood and produce offspring; also recorded: loss of reproduction
[3]; LSR-1, 100 μg/ml rifampicin in artificial diet with essential amino acids, through plants
  Aphid developmental stage: developed faster and to higher instar stages as compared to aphids treated with rifampicin alone
[3]; LSR-1 first instar, 100 μg/ml rifampicin in artificial diet without essential amino acids, delivery through plants, by 6 days, even after 12 days
  Aphid developmental stage: delay in aphid development
[3]; eNASCO first instar, leaf coating, 100 μl of 50 μg/ml rifampicin in 0.025% Silwet L-77, by 6 days, even after 12 days
  Aphid developmental stage: delayed aphid development

Source: US20190387748A1, “COMPOSITIONS AND RELATED METHODS FOR AGRICULTURE” (priority 2017, published 2019)
